Test results taken from article PMC6482240.
No constants are given. Whether binding was seen depends on the method and setting. In cells and extracts the contact can be indirect. Some results given as binding are weak or reduced against the parent protein; the word gives no strength. Sequences can lack the tags named with a protein.

Legend:
GST-mGlu1 (-KQSSSTL) = target: T1, GST-mGlu1 (-KQSSSTL); test: pull-down; GST-fused C-terminal heptapeptides on glutathione Sepharose 4B beads, incubated with lysate containing MAL-PDZ Tamalin; 1 mg/mL BSA, PTx buffer (PBS, 0.1% Triton X-100, pH 7.4), 4 h at 4°C, with or without synthetic peptides; retained MAL-PDZ Tamalin read by dot blot array with anti-MAL antibody; only the target purified
T1 sequence: KQSSSTL

GST-mGlu5 (-TQSSSSL) = target: T2, GST-mGlu5 (-TQSSSSL); test: as above
T2 sequence: TQSSSSL

B1: MAL-PDZ Tamalin (domain or fragment, UniProt Q8R4T5 100-190)
chain: VLTLEKGDNQTFGFEIQTYGLHHREEQRVEMVTFVCRVHESSPAQLAGLTPGDTIASVNGLNVEGIRHREIVDIIKASGNVLRLETLYGTS
GST-mGlu1 (-KQSSSTL)
  binding: binds
GST-mGlu5 (-TQSSSSL)
  binding: binds
